From paper PMC9958131 (Nature Communications, 2023) come the findings set out here.

The series has as its system cathepsins B, S, and H. Put plainly: Proteolytic mapping (ProtMap) of native and citrullinated autoantigens by cathepsins B, S, and H with LFQ-MS. Conditions: protein-level LFQ-MS abundance in cathepsin B; for PAD2-Citrullinated Replicate 2 (protein abundance) / PAD2-Citrullinated Replicate 3 (protein abundance) / PAD2-Citrullinated Replicate 4 (protein abundance): H digest of PAD2-citrullinated vimentin. The class given is biochemical, human. The protocol:
Prior to proteolytic mapping, citrullinated antigens were generated by incubating recombinant human antigens—hnRNP A2/B1 (RA33; custom-made as previously described by in ref. [24]), fibrinogen (Cayman Chemical), and vimentin (PeproTech)—with Sf9-purified peptidylarginine deiminase 2 or 4 (PAD2 or PAD4; Inova) at a 17:1 mass ratio in citrullination buffer (100 mM Tris, 1 mM DTT, 5 mM CaCl2, pH 7.5) for 4 h at 37 °C. Native antigens were diluted in the same buffer without PAD enzymes and without incubation at 37 °C to prevent degradation. Citrullination was confirmed by anti-peptidylcitrulline (clone F95, EMD Millipore) immunoblotting. Native and citrullinated antigen pools were split into four 15 µg replicates per condition before digestion (except hnRNP A2/B1, which was digested in double-volume replicates of three and later split into two each, total n = 6, prior to MS) by cathepsins B, S, and H (Millipore Sigma). Digestions were incubated in digestion buffer (citrate phosphate buffer, 4 mM DTT, 1 mM EDTA, pH 5.0) for 4 h at 37 °C. Fibrinogen and vimentin were digested at a 60:1 antigen:cathepsin mass ratio per cathepsin, and hnRNP A2/B1 was digested at a 150:1 antigen:cathepsin mass ratio per cathepsin to achieve full digestion of the protein. Digestion was confirmed by Coomassie Blue staining, and the remaining samples were centrifuged through a 10-kDa-spin filter (Microcon, Millipore) to remove undigested protein fragments. The resulting peptide repertoires were then analyzed by LFQ–MS.
Prior to MS, the samples were reduced and alkylated by incubating in 10 mM Tris (2-Carboxyethyl) phosphine hydrochloride (TCEP, v/v) and 50 mM chloroacetamide (CAA, v/v) for 1 h at room temperature. The samples were then desalted using C18 StageTips (3 M Empore) after acidifying with 1% trifluoroacetic acid (TFA). The peptide solution was vacuum-dried and stored at ‒80 °C. The peptide samples were analyzed on an Orbitrap Fusion Lumos Tribrid mass spectrometer interfaced with an Ultimate 3000 RS Autosampler nanoflow liquid chromatography system (Thermo Scientific). The dried peptides were reconstituted in 15 µL of 0.5% formic acid (FA) and then loaded onto a trap column (Acclaim™ PepMap™ 100 LC C18, 5 μm, 100 μm × 2 cm, Thermo Scientific) at a flow rate of 8 μL/min. Peptides were separated on an analytical column (Easy-Spray™ PepMap™ RSLC C18, 2 μm, 75 μm × 50 cm, Thermo Scientific) at a flow rate of 0.3 μL/min using a linear gradient with mobile phases consisting of 0.1% FA in water and in 95% acetonitrile (ACN) for 120 min. The mass spectrometer was operated in data-dependent acquisition (DDA) mode. The MS1 (precursor ions) scan range for a full survey scan was acquired from 300 to 1800 m/z in the top speed setting with a resolution of 120,000 at an m/z of 200. The AGC target for MS1 was set as 1 × 10^6, and the maximum injection time was 100 milliseconds. The most intense ions with charge states of 2–5 were isolated in a 3-s cycle, fragmented using higher-energy collisional dissociation (HCD) fragmentation with 32% normalized collision energy, and detected at a mass resolution of 50,000 at an m/z of 200. The AGC target for MS/MS (fragments) was set as 5 × 10^4, and the ion filling time was 100 milliseconds. The precursor isolation window was set to 1.6 m/z with a 0.4 m/z offset. The dynamic exclusion was set to 30 s, and singly charged ions were rejected. Internal calibration was carried out using the lock mass option (m/z 445.1200025) from ambient air[59]–[61].
Proteome Discoverer (version 2.4.1.15, Thermo Scientific) was used for the identification and quantitation of proteins. During MS/MS preprocessing, the top 10 peaks in each window of 100 m/z were selected for database search. […]

Setting [1] is: H digest of PAD4-citrullinated vimentin, replicate 3.
The mark [2] stands for this setting: H digest of PAD4-citrullinated vimentin.

Consider “Vimentin: recombinant human vimentin (PeproTech), RA autoantigen; native or citrullinated by PAD2 or PAD4”, for which the “PAD2-Citrullinated Replicate 4 (protein abundance)” value stood at 1237469794972. The “PAD2-Citrullinated Replicate 2 (protein abundance)” value (replicate 2) is 1199521932007. Where the note is “replicate 3”, the “PAD2-Citrullinated Replicate 3 (protein abundance)” value is recorded as 1060709356015. The “PAD4-Citrullinated Replicate 1 (protein abundance)” value (H digest of PAD4-citrullinated vimentin, replicate 1) is listed as 979669399242. The “PAD4-Citrullinated Replicate 3 (protein abundance)” value under setting [1] was determined as 1096666848298. Besides, the “PAD4-Citrullinated Replicate 4 (protein abundance)” value under setting [2] is reported as 949352273349. In addition, the “Native Replicate 2 (protein abundance)” value (H digest of native vimentin, replicate 2) came out at 1132521940814.

In the case of ASPGVVVDIAHSPPAKKK [PAD4_31], the “PAD2-Citrullinated Replicate 4 (protein abundance)” value was 63482555894. In addition, where the note is “replicate 2”, the “PAD2-Citrullinated Replicate 2 (protein abundance)” value is 69498390144. In addition, the “PAD2-Citrullinated Replicate 3 (protein abundance)” value (replicate 3) was 75023587211. In addition, the “PAD4-Citrullinated Replicate 2 (protein abundance)” value (H digest of PAD4-citrullinated vimentin, replicate 2) is 68414829501. Further, under setting [1], the “PAD4-Citrullinated Replicate 3 (protein abundance)” value turned out to be 64165668937. The “PAD4-Citrullinated Replicate 4 (protein abundance)” value under setting [2] amounted to 29327676864. The “Native Replicate 3 (protein abundance)” value (H digest of native vimentin, replicate 3) worked out at 47958317258.
